Measurements taken from paper PMC6155126.

Chains of the proteins cited; added tags and fusions are not shown.
UniProt Q9H9Q4: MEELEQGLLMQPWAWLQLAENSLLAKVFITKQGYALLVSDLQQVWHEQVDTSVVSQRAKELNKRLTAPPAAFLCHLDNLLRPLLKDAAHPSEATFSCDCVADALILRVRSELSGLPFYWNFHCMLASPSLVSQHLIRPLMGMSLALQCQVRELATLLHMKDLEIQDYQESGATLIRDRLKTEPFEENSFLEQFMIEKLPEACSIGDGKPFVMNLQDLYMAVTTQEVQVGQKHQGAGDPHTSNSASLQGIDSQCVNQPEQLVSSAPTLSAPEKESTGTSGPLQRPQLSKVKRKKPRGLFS
UniProt Q9BUH6: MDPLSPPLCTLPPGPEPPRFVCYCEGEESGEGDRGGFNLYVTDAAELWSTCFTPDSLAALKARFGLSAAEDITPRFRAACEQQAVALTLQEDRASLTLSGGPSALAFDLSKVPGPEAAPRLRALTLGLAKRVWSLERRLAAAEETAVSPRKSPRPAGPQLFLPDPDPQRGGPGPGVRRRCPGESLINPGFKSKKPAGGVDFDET
UniProt Q13426: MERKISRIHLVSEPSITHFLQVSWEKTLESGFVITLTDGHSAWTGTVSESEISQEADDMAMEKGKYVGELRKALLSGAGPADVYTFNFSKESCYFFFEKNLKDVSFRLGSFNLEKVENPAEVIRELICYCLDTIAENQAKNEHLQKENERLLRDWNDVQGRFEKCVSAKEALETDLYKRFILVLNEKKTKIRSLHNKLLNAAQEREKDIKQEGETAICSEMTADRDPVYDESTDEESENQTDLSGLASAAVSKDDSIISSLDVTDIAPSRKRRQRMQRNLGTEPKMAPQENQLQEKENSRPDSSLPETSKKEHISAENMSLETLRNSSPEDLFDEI

B1: TERF2IP/RAP1 (protein, UniProt Q9NYB0 1-399)
chain: MAEAMDLGKDPNGPTHSSTLFVRDDGSSMSFYVRPSPAKRRLSTLILHGGGTVCRVQEPGAVLLAQPGEALAEASGDFISTQYILDCVERNERLELEAYRLGPASAADTGSEAKPGALAEGAAEPEPQRHAGRIAFTDADDVAILTYVKENARSPSSVTGNALWKAMEKSSLTQHSWQSLKDRYLKHLRGQEHKYLLGDAPVSPSSQKLKRKAEEDPEAADSGEPQNKRTPDLPEEEYVKEEIQENEEAVKKMLVEATREFEEVVVDESPPDFEIHITMCDDDPPTPEEDSETQPDEEEEEEEEKVSQPEVGAAIKIIRQLMEKFNLDLSTVTQAFLKNSGELEATSAFLASGQRADGYPIWSRQDDIDLQKDDEDTREALVKKFGAQNVARRIEFRKK
B2: dynamin 3 (protein, UniProt Q9UQ16 1-869)
chain: MGNREMEELIPLVNRLQDAFSALGQSCLLELPQIAVVGGQSAGKSSVLENFVGRDFLPRGSGIVTRRPLVLQLVTSKAEYAEFLHCKGKKFTDFDEVRLEIEAETDRVTGMNKGISSIPINLRVYSPHVLNLTLIDLPGITKVPVGDQPPDIEYQIREMIMQFITRENCLILAVTPANTDLANSDALKLAKEVDPQGLRTIGVITKLDLMDEGTDARDVLENKLLPLRRGYVGVVNRSQKDIDGKKDIKAAMLAERKFFLSHPAYRHIADRMGTPHLQKVLNQQLTNHIRDTLPNFRNKLQGQLLSIEHEVEAYKNFKPEDPTRKTKALLQMVQQFAVDFEKRIEGSGDQVDTLELSGGAKINRIFHERFPFEIVKMEFNEKELRREISYAIKNIHGIRTGLFTPDMAFEAIVKKQIVKLKGPSLKSVDLVIQELINTVKKCTKKLANFPRLCEETERIVANHIREREGKTKDQVLLLIDIQVSYINTNHEDFIGFANAQQRSSQVHKKTTVGNQGTNLPPSRQIVIRKGWLTISNIGIMKGGSKGYWFVLTAESLSWYKDDEEKEKKYMLPLDNLKVRDVEKSFMSSKHIFALFNTEQRNVYKDYRFLELACDSQEDVDSWKASLLRAGVYPDKSVAENDENGQAENFSMDPQLERQVETIRNLVDSYMSIINKCIRDLIPKTIMHLMINNVKDFINSELLAQLYSSEDQNTLMEESAEQAQRRDEMLRMYQALKEALGIIGDISTATVSTPAPPPVDDSWIQHSRRSPPPSPTTQRRPTLSAPLARPTSGRGPAPAIPSPGPHSGAPPVPFRPGPLPPFPSSSDSFGAPPQVPSRPTRAPPSVPSRRPPPSPTRPTIIRPLESSLLD
B3: dynamin 1 (protein, UniProt Q05193 1-864)
chain: MGNRGMEDLIPLVNRLQDAFSAIGQNADLDLPQIAVVGGQSAGKSSVLENFVGRDFLPRGSGIVTRRPLVLQLVNATTEYAEFLHCKGKKFTDFEEVRLEIEAETDRVTGTNKGISPVPINLRVYSPHVLNLTLVDLPGMTKVPVGDQPPDIEFQIRDMLMQFVTKENCLILAVSPANSDLANSDALKVAKEVDPQGQRTIGVITKLDLMDEGTDARDVLENKLLPLRRGYIGVVNRSQKDIDGKKDITAALAAERKFFLSHPSYRHLADRMGTPYLQKVLNQQLTNHIRDTLPGLRNKLQSQLLSIEKEVEEYKNFRPDDPARKTKALLQMVQQFAVDFEKRIEGSGDQIDTYELSGGARINRIFHERFPFELVKMEFDEKELRREISYAIKNIHGIRTGLFTPDMAFETIVKKQVKKIREPCLKCVDMVISELISTVRQCTKKLQQYPRLREEMERIVTTHIREREGRTKEQVMLLIDIELAYMNTNHEDFIGFANAQQRSNQMNKKKTSGNQDEILVIRKGWLTINNIGIMKGGSKEYWFVLTAENLSWYKDDEEKEKKYMLSVDNLKLRDVEKGFMSSKHIFALFNTEQRNVYKDYRQLELACETQEEVDSWKASFLRAGVYPERVGDKEKASETEENGSDSFMHSMDPQLERQVETIRNLVDSYMAIVNKTVRDLMPKTIMHLMINNTKEFIFSELLANLYSCGDQNTLMEESAEQAQRRDEMLRMYHALKEALSIIGDINTTTVSTPMPPPVDDSWLQVQSVPAGRRSPTSSPTPQRRAPAVPPARPGSRGPAPGPPPAGSALGGAPPVPSRPGASPDPFGPPPQVPSRPNRAPPGVPSRSGQASPSRPESPRPPFDL

biological target: FLAG-DNA-PKcs (UniProt P78527); test: affinity purification with mass spectrometry; anti-FLAG IP of FLAG-PAXX, -XLF, -XRCC4, -DNA-PKcs (stable) or FLAG-Pol λ (transient) from nucleoplasmic and benzonase-treated soluble chromatin fractions of HEK293F cells; FLAG peptide elution; LC-MS/MS

binding | Binder
binds | B1
binds | B2
binds | B3

biological target: FLAG-XLF (human) (UniProt Q9H9Q4); test: as above

binding | Binder
binds | B1
binds | B2
binds | B3

biological target: FLAG-PAXX (human) (UniProt Q9BUH6); test: as above

binding | Binder
binds | B1
binds | B2
binds | B3

biological target: FLAG-XRCC4 (human) (UniProt Q13426); test: as above

binding | Binder
no binding | B1
no binding | B2
no binding | B3

These are yes or no findings as the source states them, for the method shown. Binding seen in cells or lysates may run through a third protein. These calls come from enrichment with a bait or labelling near it, and not all partners need be listed. For part of these data: A no says only that the protein was not detected with the bait.
